Experimental data published in PubChem BioAssay AID1671190 (National Center for Advancing Translational Sciences (NCATS), 2021).
Out of some 580,000 compounds screened, about 6,100 (1.1%) were called active. This list was built around the results that the source calls inconclusive (neither active nor inactive); the mix of calls is not that of the screen. Calls come from the whole dose curve; as a rule, active = well fitted inhibition curve with a large enough effect; inconclusive = small, poorly fitted or top-dose-only effect, or another doubt; inactive = no such curve, though single readings can be large or run the other way. Potencies of inconclusive entries are doubtful fits and often do not repeat.

Protein sequences, listed by entry. Tags and fused reporters are not part of them.
UniProt P18054, whole entry, looked up: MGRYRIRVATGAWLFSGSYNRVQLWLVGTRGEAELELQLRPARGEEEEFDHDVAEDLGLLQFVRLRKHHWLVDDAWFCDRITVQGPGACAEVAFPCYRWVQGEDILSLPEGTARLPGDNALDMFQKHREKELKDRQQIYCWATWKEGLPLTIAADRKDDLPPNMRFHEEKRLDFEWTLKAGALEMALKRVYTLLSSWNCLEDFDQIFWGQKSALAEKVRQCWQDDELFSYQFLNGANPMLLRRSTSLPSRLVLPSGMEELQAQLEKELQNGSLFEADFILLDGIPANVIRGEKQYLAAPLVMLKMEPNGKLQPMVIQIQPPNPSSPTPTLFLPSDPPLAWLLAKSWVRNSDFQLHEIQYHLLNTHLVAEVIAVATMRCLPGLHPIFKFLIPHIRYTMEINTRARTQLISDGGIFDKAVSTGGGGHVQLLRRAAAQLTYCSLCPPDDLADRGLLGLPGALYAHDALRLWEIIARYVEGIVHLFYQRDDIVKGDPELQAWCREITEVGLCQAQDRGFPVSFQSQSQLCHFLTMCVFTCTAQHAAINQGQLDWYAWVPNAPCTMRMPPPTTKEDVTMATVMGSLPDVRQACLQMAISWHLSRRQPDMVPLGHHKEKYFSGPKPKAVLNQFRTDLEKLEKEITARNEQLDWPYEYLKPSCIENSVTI

target: Polyunsaturated fatty acid lipoxygenase ALOX12 (Homo sapiens) (UniProt P18054); test: Primary qHTS assay for inhibitors of human arachidonate 12S-lipoxygenase (ALOX12): Round 2; details: purified 12hLO, xylenol orange hydroperoxide absorbance; activity change, negative = inhibition: at 108 µM (top of the series) unless noted
Method in brief: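 Hydroperoxide product was detected by ferrous iron/xylenol orange as the 573 to 405 nm absorbance ratio. Arachidonic acid at 40 uM (final) was turned over for 30 min at room temperature by 150 nM human 12hLO, pH 7.0 Hepes buffer, after 15 min compound preincubation.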
% is set by controls: 0 for no effect and ±100 for the full control effect; potency is the fitted concentration of half-maximal effect.

| Compound | Potency | activity change, negative = inhibition |
| --- | --- | --- |
| O=C(Cc1ccc(Cl)cc1)N1CCC2(CC1)CN(C1CCC1)CC2CO (centres undefined) | inconclusive: 28.2 µM [inhibitor, full curve] | – |
| Cc1ccc(CN(C)C(=O)c2cc(-c3cccnc3)nc3ccccc23)o1 | inconclusive: 7.08 µM [inhibitor, full curve, poor fit] | – |
| CN(C1=NS(=O)(=O)N=C(N(C)c2ccccc2)O1)c1ccccc1 | inactive | – |
| CN1CCCN(C(=O)[C@H]2C[C@@](C)(C(=O)O)N(C)[C@H]2c2ccccc2Cl)CC1 | inactive | – |
| Cc1ccc(NC(=O)Cn2ccn3nc(-c4ccccc4)c(CO)c3c2=O)cc1Cl | inconclusive: 10 µM [inhibitor, full curve] | – |
| O=C(NC(=S)Nc1ccccc1N1CCCC1)c1ccc([N+](=O)[O-])cc1 | inconclusive: 56.2 µM [inhibitor, partial curve, poor fit] | – |
| Oc1ccc(-c2csc(Nc3cccc(O)c3)n2)cc1 | active: 39.8 µM | – |
| O=C(NCc1ccccc1C(F)(F)F)c1cccc2c1C(=O)c1ccc(N3CCCCC3)cc1S2(=O)=O | inactive | – |
| O=C1c2ccccc2S(=O)(=O)N1Cc1nc(-c2ccc(Cl)cc2Cl)cs1 | inconclusive: 14.1 µM [inhibitor, full curve, poor fit] | – |
| Cc1ccc(CS(=O)Cc2ccc(C(=O)N3CCN(c4cccc(C)c4C)CC3)o2)cc1 (centres undefined) | inactive | – |
| CNC(=O)c1nnn2cc(C)[nH]c(=O)c12 | inconclusive: 22.4 µM [inhibitor, single point] | – |
| COC(=O)c1ccccc1NC(=O)c1ccc(COc2ccccc2)o1 | inconclusive: 141 µM [inhibitor, partial curve, poor fit] | – |
| Cc1cc2n(n1)SC(Nc1cccc3ccccc13)N2 (centres undefined) | inactive | – |
| O=c1cc(N2CCOCC2)oc2c(-c3cccc(F)c3)nccc12 | inactive | – |
| Fc1ccc(C(c2nnnn2C2CCCC2)N2CCN(Cc3ccncc3)CC2)cc1 (centres undefined) | inconclusive: 50.1 µM [inhibitor, single point] | – |
| Cc1ccc(-n2nc3cc(C)c(N)cc3n2)cc1 | active: 44.7 µM | – |
| CC(=O)Nc1ccc(S(=O)(=O)C(C#N)c2nc3ccccc3nc2NCCO)cc1 (centres undefined) | inactive | – |
| Cc1ccc(NC2=NCC(Cc3ccc(Br)cc3)S2)cc1 (centres undefined) | inconclusive: 79.4 µM [inhibitor, partial curve, poor fit] | – |
| Cc1cc(CN2CCC([C@@H]3CNC[C@H]3CO)CC2)n(C)n1 | inconclusive: 3.16 µM [inhibitor, full curve, poor fit] | – |
| CCN(CC)c1ccc(NC(=O)COc2ccccc2C)cc1S(=O)(=O)Nc1ccccc1OC | inconclusive: 17.8 µM [inhibitor, partial curve, poor fit] | – |
| CC(NC(=O)Cc1csc2nc(-c3ccccc3)cn12)c1ccc(S(C)(=O)=O)cc1 (centres undefined) | inconclusive: 39.8 µM [inhibitor, partial curve, poor fit] | – |
| COc1cccc(CN2CC(C(=O)N(C)Cc3[nH]c4ccccc4c3C)CCC2=O)c1 (centres undefined) | inconclusive: 112 µM [inhibitor, single point] | – |
| CN1CCN(c2ncc3nc(-c4cc(F)cc(F)c4)c(=O)n(-c4ccccc4)c3n2)CC1 | inconclusive: 44.7 µM [inhibitor, partial curve, poor fit] | – |

| Compound | Potency | activity change, negative = inhibition |
| --- | --- | --- |
| CCCCCNC(=O)C(c1ccc(C(F)(F)F)cc1)n1c(=O)c(-c2ccco2)nc2ccccc21 (centres undefined) | active: 44.7 µM | – |
| CCN1CCCC(OC(=O)C(c2ccccc2)c2ccccc2)C1 (centres undefined) | inconclusive: 50.1 µM [inhibitor, partial curve, poor fit] | – |
| CC1(C)Cc2c(c(-c3ccco3)nc3sc4c(NCCCO)ncnc4c23)CO1 | inconclusive: 12.6 µM [inhibitor, partial curve, poor fit] | – |
| CCOC(=O)c1c(NC(=O)C2CCCO2)sc(C(=O)OC(C)(C)C)c1C (centres undefined) | inconclusive: 15.8 µM [inhibitor, full curve, poor fit] | – |
| S=C1NC2(CCCCCCCCCCC2)NN1c1ccc(Cl)cc1 | inconclusive: 25.1 µM [inhibitor, partial curve, poor fit] | – |
| Cc1ccc2[nH]c(C)c([N+](=O)[O-])c2c1 | inactive | – |
| COc1ccc(NC(=O)CN(C)C(=O)c2cn(-c3ccccc3)nc2-c2ccc(Cl)cc2)cc1 | inconclusive: 44.7 µM [inhibitor, partial curve, poor fit] | – |
| N#Cc1cccc(NC(=O)c2cc(Cl)cc(Cl)c2)c1 | inactive | – |
| NS(=O)(=O)c1cc(C(=O)N=Nc2c(O)[nH]c3ccccc23)ccc1Cl | inactive | – |
| Cc1ccccc1NC(=S)NC(=O)Cc1ccc(Cl)cc1 | inconclusive: 39.8 µM [inhibitor, partial curve, poor fit] | – |
| CN(CC(=O)Nc1cc(S(=O)(=O)N2CCCC2)ccc1Cl)Cc1cccs1 | inactive | – |
| COc1ccccc1CCNC(=O)Cc1c(C)c2c(O)cc(C)cc2oc1=O | – | inconclusive: -41.4% [inhibitor] |
| Cc1nccn1CCN(C)C(=O)c1coc(COc2cccc(C(F)(F)F)c2)n1 | inactive | – |
| CC(C)CC(=O)NC(=S)Nc1ccc(N2CCCC2)c(Cl)c1 | inconclusive: 10 µM [inhibitor, full curve, poor fit] | – |
| O=C(Nc1nc2ccccc2s1)c1cc2c(s1)-c1ccccc1OC2 | inactive | – |
| COCCN1Cc2[nH]nc(-c3cccc(COC)c3)c2CC1=O | inconclusive: 39.8 µM [inhibitor, partial curve, poor fit] | – |
| CC(=O)Oc1ccc2c(=O)c(-c3ccccc3)coc2c1 | inconclusive: 100 µM [inhibitor, partial curve, poor fit] | – |
| O=C(Nc1ccc(I)cc1)C1CCCCC1 | inconclusive: 126 µM [inhibitor, single point] | – |
| Cc1ccccc1OCC(=O)N1CCc2ccccc2C1 | inconclusive: 3.98 µM [inhibitor, full curve] | – |
| CC(C)[Si]1(C(C)C)OCC2OC(n3cnc4c(N)ncnc43)C(N)C2O[Si](C(C)C)(C(C)C)O1 (centres undefined) | inactive | – |
| O=c1oc2ccccc2c(Nc2cccc(O)c2)c1[N+](=O)[O-] | inactive | – |
| Cc1ccc(C(=O)CN2C(=O)NC3(CCCCC3C)C2=O)s1 (centres undefined) | inconclusive: 100 µM [inhibitor, single point] | – |
| CCOC(=O)c1cnn(-c2sc(C(=O)OCC)c(C)c2C(=O)OCC)c1N | inconclusive: 12.6 µM [inhibitor, partial curve, poor fit] | – |

| Compound | Potency | activity change, negative = inhibition |
| --- | --- | --- |
| COc1ccc(-n2nc(C)c([C@@H]3C=C[C@@H](NC(=O)NC4CCCCC4)C3)c2C)cc1 | inactive | – |
| Cc1cc(F)ccc1NC(=O)CCS(=O)(=O)c1cccc2nsnc12 | inconclusive: 35.5 µM [inhibitor, partial curve, poor fit] | – |
| COCCn1c(=O)c(C)nc2cnc(N3CCOCC3)nc21 | inconclusive: 28.2 µM [inhibitor, partial curve, poor fit] | – |
| S=C(Nc1ccc(Cl)cc1)NC1CCN(Cc2ccccc2)CC1 | inconclusive: 63.1 µM [inhibitor, partial curve, poor fit] | – |
| O=C(O)c1ccccc1C(=O)c1cccs1 | inconclusive: 22.4 µM [inhibitor, single point] | – |
| COc1ccc2c(c1)C1=C(CC2)C(c2ccc(C)cc2)NC(=S)N1 (centres undefined) | active: 39.8 µM | – |
| O=C(c1ccco1)N1CCN(Cc2cccnc2)CC1 | inconclusive: 0.316 µM [inhibitor, full curve, poor fit] | – |
| Cn1cc(-c2nc(N3CCOCC3)cc3c2CN(c2ccccc2)C3=O)cn1 | inactive | – |
| O=C(CSc1nnnn1-c1ccc2c(c1)OCO2)NCc1cccs1 | inactive | – |
| O=C(CSc1cccc[n+]1[O-])N1CCCCCC1 | inactive | – |
| N#Cc1ccc(COC(=O)c2ccc3ccccc3n2)cc1 | inconclusive: 17.8 µM [inhibitor, partial curve, poor fit] | – |
| Cc1cc2nc(SCC(=O)Nc3cc(Cl)ccc3C)[nH]c(=O)c2[nH]1 | inactive | – |
| O=C1[C@H]2CN(Cc3ccc(C(F)(F)F)cc3)C[C@H]2C(=O)N1CCc1ccccc1 | inconclusive: 2.82 µM [inhibitor, full curve] | – |
| ON(/C=C1\C=Nc2ccccc21)c1ccc(Br)cc1 | inconclusive: 79.4 µM [inhibitor, single point] | – |
| CC(C)(C)CC(=O)Nc1nc2c(s1)C[C@@H]1[C@](C)(CO)[C@H](O)CC[C@@]1(C)[C@@H]2CC(=O)NC1CCCC1 | inactive | – |
| O=C(Cn1sc2ccccc2c1=O)Nc1ccc(Cl)cc1 | inactive | – |
| C=CCN1C(=O)SC(Cc2cccc(OC)c2O)C1=O (centres undefined) | inconclusive: 100 µM [inhibitor, partial curve, poor fit] | – |
| COc1ccc(NC(=S)Nn2cnnc2)cc1OC | inconclusive: 3.16 µM [inhibitor, full curve, poor fit] | – |
| CC(C)C[C@@H]1N[C@H](C(=O)O)Cc2cn(Cc3nccn3C)c3cccc1c23 | inconclusive: 8.91 µM [inhibitor, full curve, poor fit] | – |
| COC(=O)C1=C(CSc2nc3c(cc2C#N)CN(C)CC3)OC(N)=C(C#N)C1c1ccc(F)cc1 (centres undefined) | inconclusive: 44.7 µM [inhibitor, partial curve, poor fit] | – |
| CCCCC(CCC(=O)Nc1cc([N+](=O)[O-])ccc1O)C(=O)O (centres undefined) | inconclusive: 39.8 µM [inhibitor, partial curve, poor fit] | – |
| CCO[C@H]1OC(C(=O)N2CCN(Cc3ccc4c(c3)OCO4)CC2)=C[C@@H](C2CCCCC2)[C@@H]1CCCO | inactive | – |
| Cc1ccc(S(=O)(=O)N2CCC(C(=O)Nc3cc(C)ccc3C)CC2)cc1 | – | inconclusive: -41.2% [inhibitor] |

Exported tab-delimited: entries from further up
Compound	Potency	activity change, negative = inhibition
COc1ccc2c(c1)C1=C(CC2)C(c2ccc(C)cc2)NC(=S)N1 (centres undefined)	active: 39.8 µM	–
O=C(c1ccco1)N1CCN(Cc2cccnc2)CC1	inconclusive: 0.316 µM [inhibitor, full curve, poor fit]	–
O=C(CSc1nnnn1-c1ccc2c(c1)OCO2)NCc1cccs1	inactive	–
C=CCN1C(=O)SC(Cc2cccc(OC)c2O)C1=O (centres undefined)	inconclusive: 100 µM [inhibitor, partial curve, poor fit]	–
COC(=O)C1=C(CSc2nc3c(cc2C#N)CN(C)CC3)OC(N)=C(C#N)C1c1ccc(F)cc1 (centres undefined)	inconclusive: 44.7 µM [inhibitor, partial curve, poor fit]	–
CCCCC(CCC(=O)Nc1cc([N+](=O)[O-])ccc1O)C(=O)O (centres undefined)	inconclusive: 39.8 µM [inhibitor, partial curve, poor fit]	–
